Test results published in PubChem BioAssay AID248 (DTP/NCI, 2004).
The list does not hold the whole screen: it gathers tests that were run many times, whatever their T/C, doses with no T/C, and many T/C values between a quarter and a half above the control. Further doses and runs are listed elsewhere. T/C is the treated group as % of the vehicle group. Some entries give survivors of the animals treated and no T/C: the source holds a T/C of zero for them, seemingly a mark for toxic or unscored doses. Some survivor counts are full or nearly so, which does not show that the dose was tolerated: the source hardly ever lists a survival T/C far under the control, and the zero likely stands for such cases as well. Counts of survivors are from the toxicity check (mostly the fifth day) where no day follows; animals may have died later. Schedule codes are those of the source, taken here to give the interval after Q, in days (D) or hours (H), and the number of doses after X. For survival time, this PubChem deposit counts one and a half times the control or more as active, and values a quarter to a half above the control carry no call in these data; other NCI protocols may use other cut-offs.

Tested on: L1210 leukemia ip in BDF1 mice, survival T/C
Test: NCI In Vivo Anticancer Drug Screen. Data for tumor model L1210 Leukemia (intraperitoneal) in B6D2F1 (BDF1) mice
Conditions: T/C endpoint: mean survival time, higher T/C = longer survival
[1] = dose: 400.0 mg/kg/injection, schedule: Q04DX003 (ip), vehicle: saline with Tween-80

In the case of `O=C1C(=O)c2ccccc2C(O)=C1CC=C1CCCC1`, the survivor count (dose: 400.0 mg/kg/injection, schedule: Q01DX001 (ip), vehicle: water) is reported as 3 of 6 and the survivor count (dose: 400.0 mg/kg/injection, schedule: Q01DX009 (ip), vehicle: water) is reported as 0 of 6.

With `COc1ccc2c[n+](C)c3c4cc(OC)c(OC)cc4ccc3c2c1` the survivor count (dose: 100.0 mg/kg/injection, schedule: Q04DX003 (ip), vehicle: saline with Tween-80) was 1 of 3, the survivor count (dose: 200.0 mg/kg/injection, schedule: Q04DX003 (ip), vehicle: saline with Tween-80) was 1 of 3 and the survivor count [1] was 0 of 3.

With `Cc1cc(C(C)(C)C)c(SC(=O)N(C)C)c(C(C)(C)C)c1` the survivor count [1] was 5 of 6.

In the case of `C/C=C\c1ccc(OCCOC(=O)Nc2ccccc2C(F)(F)F)c(OC)c1`, the survivor count (dose: 25.0 mg/kg/injection, schedule: Q01DX009 (ip), vehicle: Klucel (hydroxypropylcellulose) (HPC)) is reported as 3 of 3, the survivor count (dose: 50.0 mg/kg/injection, schedule: Q01DX009 (ip), vehicle: Klucel (hydroxypropylcellulose) (HPC)) is reported as 3 of 3 and the survivor count (dose: 100.0 mg/kg/injection, schedule: Q01DX009 (ip), vehicle: Klucel (hydroxypropylcellulose) (HPC)) is reported as 3 of 3.

In the case of `OCC12CCCCC1CC1(CC2)OCCO1` (configuration not stated), the survivor count [1] is reported as 6 of 6.

With `CCC1(O)CC2CN(CCc3c([nH]c4ccccc34)C(C(=O)OC)(c3cc4c(cc3OC)N(C)C3C(O)(C(N)=O)C(O)C5(CC)C=CCN6CCC43C65)C2)C1` (configuration not stated) (tested in a mixture with another compound) the T/C (dose: 0.16 mg/kg/injection, schedule: Q01DX009 (ip), vehicle: saline) was 136 % of control, the T/C (dose: 0.26 mg/kg/injection, schedule: Q01DX009 (ip), vehicle: saline) was 138 % of control and the T/C (dose: 0.39 mg/kg/injection, schedule: Q04DX003 (ip), vehicle: saline) was 128 % of control. For the same compound, the T/C (dose: 0.65 mg/kg/injection, schedule: Q04DX003 (ip), vehicle: saline) was 140 % of control, the survivor count (dose: 0.72 mg/kg/injection, schedule: Q01DX009 (ip), vehicle: saline) was 2 of 8 and the T/C (dose: 1.08 mg/kg/injection, schedule: Q04DX003 (ip), vehicle: saline) was 130 % of control. For the same compound, the T/C (dose: 1.8 mg/kg/injection, schedule: Q04DX003 (ip), vehicle: saline) was 134 % of control, the T/C (dose: 3.0 mg/kg/injection, schedule: Q04DX003 (ip), vehicle: saline) was 129 % of control and the T/C (dose: 389.0 micrograms/kg/injection, schedule: Q04DX003 (ip), vehicle: saline) was 129 % of control. For the same compound, the T/C (dose: 1080.0 micrograms/kg/injection, schedule: Q04DX003 (ip), vehicle: saline) was 149 % of control, the T/C (dose: 1800.0 micrograms/kg/injection, schedule: Q04DX003 (ip), vehicle: saline) was 149 % of control and the T/C (dose: 3000.0 micrograms/kg/injection, schedule: Q04DX003 (ip), vehicle: saline) was 126 % of control.

In the case of `Brc1cccc[n+]1CCCC[n+]1ccccc1Br`, the survivor count (dose: 40.0 mg/kg/injection, schedule: Q01DX001 (ip), vehicle: saline) is reported as 0 of 6, the survivor count (dose: 80.0 mg/kg/injection, schedule: Q01DX001 (ip), vehicle: saline) is reported as 2 of 6 and the survivor count (dose: 100.0 mg/kg/injection, schedule: Q01DX001 (ip), vehicle: saline) is reported as 0 of 6. The survivor count (dose: 200.0 mg/kg/injection, schedule: Q01DX001 (ip), vehicle: saline) was 0 of 6 and the survivor count (dose: 400.0 mg/kg/injection, schedule: Q01DX001 (ip), vehicle: saline) was 0 of 6.

`COCCOC(=O)C(=O)OCCOC` was tested, and the survivor count (dose: 400.0 mg/kg/injection, schedule: Q01DX001 (ip), vehicle: Klucel (hydroxypropylcellulose) (HPC)) was 2 of 6.

In the case of `COC1CCC2CCN(C)C(Cc3ccc(Oc4ccc(CC5C6CC(OC)CCC6CCN5C)cc4)cc3)C2C1` (configuration not stated), the survivor count (dose: 1.56 mg/kg/injection, schedule: Q01DX009 (ip), vehicle: saline with Tween-80) is reported as 3 of 3, the survivor count (dose: 100.0 mg/kg/injection, schedule: Q04DX002 (ip), vehicle: saline with Tween-80) is reported as 0 of 3 and the survivor count (dose: 200.0 mg/kg/injection, schedule: Q04DX002 (ip), vehicle: saline with Tween-80) is reported as 0 of 3. The survivor count (dose: 400.0 mg/kg/injection, schedule: Q04DX002 (ip), vehicle: saline with Tween-80) was 0 of 3.

In the case of `NCCc1ccc(OCc2ccccc2)c(OCc2ccccc2)c1`, the survivor count (dose: 50.0 mg/kg/injection, schedule: Q01DX009 (ip), vehicle: saline) is reported as 4 of 6, the survivor count (dose: 100.0 mg/kg/injection, schedule: Q04DX003 (ip), vehicle: saline) is reported as 6 of 6 and the survivor count (dose: 200.0 mg/kg/injection, schedule: Q04DX003 (ip), vehicle: saline) is reported as 6 of 6. For the same compound, the survivor count (dose: 400.0 mg/kg/injection, schedule: Q04DX003 (ip), vehicle: saline) was 6 of 6.

In the case of `CCCCCCC(C)N(CC)CCOC(=O)c1ccc(N)cc1` (configuration not stated), the survivor count (dose: 300.0 mg/kg/injection, schedule: Q01DX001 (ip), vehicle: other) is reported as 2 of 6.
